Results reported in publication PMC8523698, “Preclinical characterization of an intravenous coronavirus 3CL protease inhibitor for the potential treatment of COVID19” (Nature Communications, 2021).
Values joined by “and” are separate entries in the source; they are usually repeats but may differ in a detail not shown here. Equal values may be shown once. Further values from the same series stand in other lists.

Test system: HCoV-229E
Test: Viral CPE assay in MRC-5 cells (CellTiter Glo)
Type: cell-based
Conditions: plus 0.5 uM efflux inhibitor

COc1cccc2[nH]c(C(=O)N[C@@H](CC(C)C)C(=O)N[C@@H](C[C@@H]3CCNC3=O)C(=O)CO)cc12 [PF-00835231-00]
% Well Effect (0.000938825 uM, EC50 run 17-Apr-2020): 2.65% and 6.47%
% Well Effect (0.000949 uM, EC50 run 22-may-2020): 5.07% and -3.54%
% Well Effect (0.00297326 uM, EC50 run 17-Apr-2020): -5.58% and 0.60%
% Well Effect (0.00297326 uM, EC50 run 24-Apr-2020): -11.31% and -11.03%
% Well Effect (0.003002 uM, EC50 run 22-may-2020): 0.48% and 1.64%
% Well Effect (0.00941631 uM, EC50 run 17-Apr-2020): -0.15% and 6.87%
% Well Effect (0.0298215 uM, EC50 run 17-Apr-2020): 17.63% and 12.83%
% Well Effect (0.0298215 uM, EC50 run 24-Apr-2020): -2.34% and -5.65%
% Well Effect (0.0944446 uM, EC50 run 17-Apr-2020): 97.09% and 89.01%
% Well Effect (0.0944446 uM, EC50 run 24-Apr-2020): 26.00% and 31.06%
% Well Effect (0.094893 uM, EC50 run 22-may-2020): 71.50% and 72.43%
% Well Effect (0.299106 uM, EC50 run 17-Apr-2020): 102.72% and 106.40%
% Well Effect (0.299106 uM, EC50 run 24-Apr-2020): 63.03% and 59.11%
% Well Effect (0.300053 uM, EC50 run 22-may-2020): 90.68% and 94.90%
% Well Effect (0.947269 uM, EC50 run 17-Apr-2020): 100.61% and 103.03%
% Well Effect (0.947269 uM, EC50 run 24-Apr-2020): 62.85% and 57.32%
% Well Effect (0.948767 uM, EC50 run 22-may-2020): 91.30% and 94.57%
% Well Effect (3 uM, EC50 run 17-Apr-2020): 99.68% and 104.80%
% Well Effect (3 uM, EC50 run 22-may-2020): 94.06%
% Well Effect (3 uM, EC50 run 24-Apr-2020): 59.78%
